Measurements reported in patent US9272035B2, “Methods and compositions using PDE4 inhibitors for the treatment and management of autoimmune and inflammatory diseases” (Celgene Corporation, priority 2011, dated 2016).
For some assays here: For at least one compound, name, drawing or mass did not settle the structure. Some results were stated once for a whole list of compounds, not compound by compound.

What was measured:
[1] = tested on: mAB/LPS-induced experimental arthritis; assay: mAB/LPS-induced experimental murine arthritogenic model, paw thickness (five treatment days); assay type: in vivo, BALB/c male mice; conditions: 1 mg/kg, identical dosing regimen; Positive Control
Description: The mice were administered with 1, 5 and 25 mg/kg once daily oral (PO) gavage throughout five successive treatment days.

[2] = tested on: Human peripheral blood total T cells stimulated with anti-CD3 antibody; assay: Cytokine and chemokine production by anti-CD3-stimulated T cells (cytometric bead array, Luminex 100); assay type: cell-based; conditions: 2 days, range over all analytes
Description: Cytokine and chemokine protein levels were analyzed by cytometric bead array on a Luminex 100. CAIA model: […] Compound A and ETN were administered once daily on days 3-13. […] Both hind paws (left and right) of each animal were examined for signs of arthritogenic responses in blinded fashion. Arthritic reactions were scored and recorded according to a 0-4 scale in ascending order of severity. Hind paw thickness was measured in mm using a Mitutoyo Electronic Digital Caliper.

Row | SMILES | hind paw thickness (reduction of paw swelling) [1] | IC50s, production of all T cell cytokines and chemokines measured (IL-2, IL-4, IL-13, IFN-γ, TNF-α, CXCL10, CCL3, and CCL4) [2] [mg/L]
1 | C[C@@H]1C[C@H]2[C@@H]3CCC4=CC(=O)C=C[C@]4(C)[C@@]3(F)[C@@H](O)C[C@]2(C)[C@@]1(O)C(=O)CO [dexamethasone, reference compound] | statistically significant reduction of paw swelling | 
2 | CN(Cc1cnc2nc(N)nc(N)c2n1)c1ccc(C(=O)N[C@@H](CCC(=O)O)C(=O)O)cc1 [MTX, methotrexate] |  | > 1.6
